Laboratory results as given in patent publication US9247740B2, “Isoxazoline derivatives as insecticidal compounds” (Syngenta Participations AG, priority 2011, dated 2016).
Some entries share one result that the patent states for a list of compounds. At least one structure is not confirmed: it was looked up by name or label, or the drawing left a doubt.

Tests used:
Type in all cases: in vivo
[1] = tested on: Diabrotica balteata (Corn Root Worm); assay: Diabrotica balteata larval test on artificial diet; settings: 200 ppm (concentration in well 18 ppm), L2 larvae, larval mortality and growth regulation after 5 days
Source text: (§1) This Example illustrates the insecticidal and acaricidal properties of compounds of formula (I).

[2] = tested on: Tetranychus urticae (Two-Spotted Spider Mite); assay: Tetranychus urticae leaf disc spray test; settings: 200 ppm spray on bean leaf discs, mixed ages; egg, larval and adult mortality 8 days later
Source text: as §1

[3] = tested on: Thrips tabaci (Onion Thrips); assay: Thrips tabaci leaf disc spray test; settings: 200 ppm spray on sunflower leaf discs, mixed ages; mortality after 7 days
Source text: as §1

[4] = tested on: Spodoptera littoralis (Egyptian Cotton Leafworm); assay: Spodoptera littoralis leaf disc spray test; settings: 200 ppm spray on cotton leaf discs; mortality, feeding behavior, growth regulation 3 days after treatment
Method: This Example illustrates the insecticidal and acaricidal properties of compounds of formula (I). Tests were performed as follows:

[5] = tested on: Plutella xylostella (Diamond Back Moth); assay: Plutella xylostella larval test on artificial diet; settings: 200 ppm (concentration in well 18 ppm), L2 larvae, larval mortality and growth regulation after 6 days
Source text: as §1

[6] = tested on: Heliothis virescens (Tobacco Budworm); assay: Heliothis virescens egg test on artificial diet; settings: 200 ppm (concentration in well 18 ppm), eggs 0-24 h old on artificial diet; egg mortality, larval mortality, growth regulation after 4 days
Source text: as §1

Cc1cc(C2=NOC(c3cc(Cl)cc(Cl)c3)(C(F)(F)F)C2)cc(I)c1C(=O)NC1CSC1 (stereo not drawn) [Compound B10]
at least 80%: control of Diabrotica balteata [1] | control of Tetranychus urticae [2] | control of Thrips tabaci [3] | control of Spodoptera littoralis [4] | control of Plutella xylostella [5] | control of Heliothis virescens [6]

Cc1cc(C2=NOC(c3cc(Cl)cc(Cl)c3)(C(F)(F)F)C2)c(Br)cc1C(=O)NC1CSC1 (stereo not drawn) [Compound B11]
at least 80%: control of Diabrotica balteata [1] | control of Tetranychus urticae [2] | control of Thrips tabaci [3] | control of Spodoptera littoralis [4] | control of Plutella xylostella [5] | control of Heliothis virescens [6]

Cc1cc(C2=NOC(c3cc(Cl)cc(Cl)c3)(C(F)(F)F)C2)c(Cl)cc1C(=O)NC1CSC1 (stereo not drawn) [Compound B12]
at least 80%: control of Diabrotica balteata [1] | control of Tetranychus urticae [2] | control of Thrips tabaci [3] | control of Spodoptera littoralis [4] | control of Plutella xylostella [5] | control of Heliothis virescens [6]

O=C(NC1CS(=O)(=O)C1)c1ccc(C2=NOC(c3cc(Cl)cc(Cl)c3)(C(F)(F)F)C2)cc1F (stereo not drawn) [Compound B13]
at least 80%: control of Diabrotica balteata [1] | control of Tetranychus urticae [2] | control of Thrips tabaci [3] | control of Spodoptera littoralis [4] | control of Plutella xylostella [5] | control of Heliothis virescens [6]

CC1(NC(=O)c2ccc(C3=NOC(c4cc(Cl)cc(Cl)c4)(C(F)(F)F)C3)cc2F)CSC1 (stereo not drawn) [Compound B14]
at least 80%: control of Diabrotica balteata [1] | control of Tetranychus urticae [2] | control of Thrips tabaci [3] | control of Spodoptera littoralis [4] | control of Plutella xylostella [5] | control of Heliothis virescens [6]

Cc1cc(C2=NOC(c3cc(Cl)cc(Cl)c3)(C(F)(F)F)C2)cc(C)c1C(=O)NC1CS(=O)(=O)C1 (stereo not drawn) [Compound B17]
at least 80%: control of Diabrotica balteata [1] | control of Tetranychus urticae [2] | control of Thrips tabaci [3] | control of Spodoptera littoralis [4] | control of Plutella xylostella [5] | control of Heliothis virescens [6]

Cc1cc(C2=NOC(c3cc(Cl)cc(Cl)c3)(C(F)(F)F)C2)cc(C)c1C(=O)N[C@H]1C[S@@+]([O-])C1 (stereo partly drawn) [Compound B19]
at least 80%: control of Diabrotica balteata [1] | control of Tetranychus urticae [2] | control of Thrips tabaci [3] | control of Spodoptera littoralis [4] | control of Plutella xylostella [5] | control of Heliothis virescens [6]

Cc1cc(C2=NOC(c3cc(Cl)cc(Cl)c3)(C(F)(F)F)C2)cc(C)c1C(=O)NC1CSC1 (stereo not drawn) [Compound B20]
at least 80%: control of Diabrotica balteata [1] | control of Tetranychus urticae [2] | control of Thrips tabaci [3] | control of Spodoptera littoralis [4] | control of Plutella xylostella [5] | control of Heliothis virescens [6]

O=C(NC1CS(=O)(=O)C1)c1ccc(C2=NOC(c3cc(Cl)cc(Cl)c3)(C(F)(F)F)C2)c(F)c1 (stereo not drawn) [Compound B21]
at least 80%: control of Diabrotica balteata [1] | control of Tetranychus urticae [2] | control of Thrips tabaci [3] | control of Spodoptera littoralis [4] | control of Plutella xylostella [5] | control of Heliothis virescens [6]

CC1(NC(=O)c2ccc(C3=NOC(c4cc(Cl)cc(Cl)c4)(C(F)(F)F)C3)c(F)c2)CSC1 (stereo not drawn) [Compound B22]
at least 80%: control of Diabrotica balteata [1] | control of Tetranychus urticae [2] | control of Thrips tabaci [3] | control of Spodoptera littoralis [4] | control of Plutella xylostella [5] | control of Heliothis virescens [6]

O=C(NC1C[S+]([O-])C1)c1ccc(C2=NOC(c3cc(Cl)cc(Cl)c3)(C(F)(F)F)C2)c(F)c1 (stereo not drawn) [Compound B23]
at least 80%: control of Diabrotica balteata [1] | control of Tetranychus urticae [2] | control of Thrips tabaci [3] | control of Spodoptera littoralis [4] | control of Plutella xylostella [5] | control of Heliothis virescens [6]

O=C(NC1CSC1)c1ccc(C2=NOC(c3cc(Cl)cc(Cl)c3)(C(F)(F)F)C2)c(F)c1 (stereo not drawn) [Compound B24]
at least 80%: control of Diabrotica balteata [1] | control of Tetranychus urticae [2] | control of Thrips tabaci [3] | control of Spodoptera littoralis [4] | control of Plutella xylostella [5] | control of Heliothis virescens [6]

COc1cc(C2=NOC(c3cc(Cl)cc(Cl)c3)(C(F)(F)F)C2)ccc1C(=O)NC1CS(=O)(=O)C1 (stereo not drawn) [Compound B25]
at least 80%: control of Diabrotica balteata [1] | control of Tetranychus urticae [2] | control of Thrips tabaci [3] | control of Spodoptera littoralis [4] | control of Plutella xylostella [5] | control of Heliothis virescens [6]

COc1cc(C2=NOC(c3cc(Cl)cc(Cl)c3)(C(F)(F)F)C2)ccc1C(=O)NC1(C)CSC1 (stereo not drawn) [Compound B26]
at least 80%: control of Diabrotica balteata [1] | control of Tetranychus urticae [2] | control of Thrips tabaci [3] | control of Spodoptera littoralis [4] | control of Plutella xylostella [5] | control of Heliothis virescens [6]

COc1cc(C2=NOC(c3cc(Cl)cc(Cl)c3)(C(F)(F)F)C2)ccc1C(=O)NC1CSC1 (stereo not drawn) [Compound B28]
at least 80%: control of Diabrotica balteata [1] | control of Tetranychus urticae [2] | control of Thrips tabaci [3] | control of Spodoptera littoralis [4] | control of Plutella xylostella [5] | control of Heliothis virescens [6]

O=C(NC1CS(=O)(=O)C1)c1ccc(C2=NOC(c3cc(Cl)cc(Cl)c3)(C(F)(F)F)C2)cc1Cl (stereo not drawn) [Compound B29]
at least 80%: control of Diabrotica balteata [1] | control of Tetranychus urticae [2] | control of Thrips tabaci [3] | control of Spodoptera littoralis [4] | control of Plutella xylostella [5] | control of Heliothis virescens [6]

CC1(NC(=O)c2ccc(C3=NOC(c4cc(Cl)cc(Cl)c4)(C(F)(F)F)C3)cc2Cl)CSC1 (stereo not drawn) [Compound B30]
at least 80%: control of Diabrotica balteata [1] | control of Tetranychus urticae [2] | control of Thrips tabaci [3] | control of Spodoptera littoralis [4] | control of Plutella xylostella [5] | control of Heliothis virescens [6]

CC1(NC(=O)c2ccc(C3=NOC(c4cc(Cl)cc(Cl)c4)(C(F)(F)F)C3)cc2C2CC2)CSC1 (stereo not drawn) [Compound B33]
at least 80%: control of Diabrotica balteata [1] | control of Tetranychus urticae [2] | control of Thrips tabaci [3] | control of Spodoptera littoralis [4] | control of Plutella xylostella [5] | control of Heliothis virescens [6]

O=C(NC1C[S+]([O-])C1)c1ccc(C2=NOC(c3cc(Cl)cc(Cl)c3)(C(F)(F)F)C2)cc1C1CC1 (stereo not drawn) [Compound B34]
at least 80%: control of Diabrotica balteata [1] | control of Tetranychus urticae [2] | control of Thrips tabaci [3] | control of Spodoptera littoralis [4] | control of Plutella xylostella [5] | control of Heliothis virescens [6]

O=C(NC1CSC1)c1ccc(C2=NOC(c3cc(Cl)cc(Cl)c3)(C(F)(F)F)C2)cc1C1CC1 (stereo not drawn) [Compound B35]
at least 80%: control of Diabrotica balteata [1] | control of Tetranychus urticae [2] | control of Thrips tabaci [3] | control of Spodoptera littoralis [4] | control of Plutella xylostella [5] | control of Heliothis virescens [6]

Cc1cc(C2=NOC(c3cc(Cl)cc(Cl)c3)(C(F)(F)F)C2)cnc1C(=O)NC1(C)CSC1 (stereo not drawn) [Compound B37]
at least 80%: control of Diabrotica balteata [1] | control of Tetranychus urticae [2] | control of Thrips tabaci [3] | control of Spodoptera littoralis [4] | control of Plutella xylostella [5] | control of Heliothis virescens [6]

Cc1cc(C2=NOC(c3cc(Cl)cc(Cl)c3)(C(F)(F)F)C2)cnc1C(=O)NC1CSC1 (stereo not drawn) [Compound B38]
at least 80%: control of Diabrotica balteata [1] | control of Tetranychus urticae [2] | control of Thrips tabaci [3] | control of Spodoptera littoralis [4] | control of Plutella xylostella [5] | control of Heliothis virescens [6]

O=C(NC1CS(=O)(=O)C1)c1ccc(C2=NOC(c3cc(Cl)cc(Cl)c3)(C(F)(F)F)C2)cn1 (stereo not drawn) [Compound B40]
at least 80%: control of Diabrotica balteata [1] | control of Tetranychus urticae [2] | control of Thrips tabaci [3] | control of Spodoptera littoralis [4] | control of Plutella xylostella [5] | control of Heliothis virescens [6]

O=C(NC1C[S+]([O-])C1)c1ccc(C2=NOC(c3cc(Cl)cc(Cl)c3)(C(F)(F)F)C2)cn1 (stereo not drawn) [Compound B43]
at least 80%: control of Diabrotica balteata [1] | control of Tetranychus urticae [2] | control of Thrips tabaci [3] | control of Spodoptera littoralis [4] | control of Plutella xylostella [5] | control of Heliothis virescens [6]
